{
  "source": "the supplement of paper PMC8728848",
  "assay_in_all_cases": "glycan array binding signal (z-score within array); higher = stronger binding",
  "settings_in_all_cases": "glycan notation: IUPAC condensed, linker removed",
  "key": {"[1]": {"biological_target": "Neu5Ac(a2-6)Gal(b1-4)GlcNAc(b1-3)Gal(b1-4)GlcNAc(b1-3)Gal(b1-4)GlcNAc", "procedure,_shortened": "(§1)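 Negative Z-scores can be read as non-binding. The Z-score is calculated within each array and then averaged across arrays of one protein sequence at different concentrations or buffers and across linkers. Arrays, 3228 in all, were curated from the Consortium for Functional Glycomics database and kept only where the protein sequence was available.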"}, "[2]": {"biological_target": "Neu5Ac(a2-6)Gal(b1-4)GlcNAc(b1-3)Gal(b1-4)[Fuc(a1-3)]GlcNAc(b1-3)Gal(b1-4)[Fuc(a1-3)]GlcNAc", "procedure,_shortened": "as §1"}, "[3]": {"biological_target": "Neu5Ac(a2-6)Gal(b1-4)GlcNAc(b1-3)GalNAc", "procedure,_shortened": "as §1"}, "[4]": {"biological_target": "Neu5Ac(a2-6)Gal(b1-4)GlcNAc6S", "procedure,_shortened": "as §1"}, "Neu5Ac(a2-6)GalNAc": {"biological_target": "Neu5Ac(a2-6)GalNAc", "procedure,_shortened": "as §1"}, "[5]": {"biological_target": "Neu5Ac(a2-6)GalNAc(b1-4)GlcNAc", "procedure,_shortened": "as §1"}, "[6]": {"biological_target": "Neu5Ac(a2-6)GlcNAc(b1-4)GlcNAc", "procedure,_shortened": "as §1"}, "[7]": {"biological_target": "Neu5Ac(a2-6)GlcNAc(b1-4)GlcNAc(b1-4)GlcNAc", "procedure,_shortened": "as §1"}, "Neu5Ac(a2-8)Neu5Ac": {"biological_target": "Neu5Ac(a2-8)Neu5Ac", "procedure,_shortened": "as §1"}, "[8]": {"biological_target": "Neu5Ac(a2-8)Neu5Ac(a2-3)Gal(b1-4)Glc", "procedure,_shortened": "as §1"}, "[9]": {"biological_target": "Neu5Ac(a2-8)Neu5Ac(a2-3)[GalNAc(b1-4)]Gal(b1-4)Glc", "procedure,_shortened": "as §1"}, "[10]": {"biological_target": "Neu5Ac(a2-8)Neu5Ac(a2-8)Neu5Ac", "procedure,_shortened": "as §1"}, "[11]": {"biological_target": "Neu5Ac(a2-8)Neu5Ac(a2-8)Neu5Ac(a2-3)Gal(b1-4)Glc", "procedure,_shortened": "as §1"}, "[12]": {"biological_target": "Neu5Ac(a2-8)Neu5Ac(a2-8)Neu5Ac(a2-3)[GalNAc(b1-4)]Gal(b1-4)Glc", "procedure,_shortened": "as §1"}, "[13]": {"biological_target": "Neu5Ac(a2-8)Neu5Ac(a2-8)Neu5Ac(a2-8)Neu5Ac(a2-3)[GalNAc(b1-4)]Gal(b1-4)Glc", "procedure,_shortened": "as §1"}, "[14]": {"biological_target": "Neu5Ac(b2-6)Gal(b1-4)GlcNAc", "procedure,_shortened": "as §1"}, "Neu5Ac(b2-6)GalNAc": {"biological_target": "Neu5Ac(b2-6)GalNAc", "procedure,_shortened": "as §1"}, "[15]": {"biological_target": "Neu5Ac9Ac(a2-3)Gal(b1-3)GlcNAc", "procedure,_shortened": "as §1"}, "[16]": {"biological_target": "Neu5Ac9Ac(a2-3)Gal(b1-4)GlcNAc", "procedure,_shortened": "as §1"}, "[17]": {"biological_target": "Neu5Ac9Ac(a2-6)Gal(b1-4)GlcNAc", "procedure,_shortened": "as §1"}, "[18]": {"biological_target": "Neu5Gc(a2-3)Gal(b1-3)GlcNAc", "procedure,_shortened": "as §1"}, "[19]": {"biological_target": "Neu5Gc(a2-3)Gal(b1-3)[Fuc(a1-4)]GlcNAc", "procedure,_shortened": "as §1"}, "Neu5Gc(a2-3)Gal(b1-4)Glc": {"biological_target": "Neu5Gc(a2-3)Gal(b1-4)Glc", "procedure,_shortened": "as §1"}, "[20]": {"biological_target": "Neu5Gc(a2-3)Gal(b1-4)GlcNAc", "procedure,_shortened": "as §1"}, "[21]": {"biological_target": "Neu5Gc(a2-3)Gal(b1-4)[Fuc(a1-3)]GlcNAc", "procedure,_shortened": "as §1"}, "[22]": {"biological_target": "Neu5Gc(a2-6)Gal(b1-4)GlcNAc", "procedure,_shortened": "as §1"}, "Neu5Gc(a2-6)GalNAc": {"biological_target": "Neu5Gc(a2-6)GalNAc", "procedure,_shortened": "as §1"}, "[23]": {"biological_target": "Neu5Gc(b2-6)Gal(b1-4)GlcNAc", "procedure,_shortened": "as §1"}},
  "note": "The other results are listed elsewhere or left out.",
  "data": [
    {"binder": "LERP (Drosophila melanogaster), B7Z0Q8 (protein) MRCSLQKDCAAPTQENFRQMRFPIVISLLLLLFCSGESVAADAANQLKFSTTECKLKEPIYGSTFDFSGLHSDLAHVVKSMNIGGDQFEFNICGNLSRTCNGESNVAACLKRQGKEYILGRQHELFYNNGNMFLKYKSGAKCDNGTADKPNYQLHVMFSCDYTLDAQPMHVTPYANEVCSFYISYRTPLACLSIPEGLQSNSCRVGDTKSNGTFDLMPLSDSNYHTSNRQGAFFVINVCKPVLYGENSMCPAGSSVCLFDSKATNPKERFINFGNVQTHPVVEKGQLLLRHESPTPCAKNSSANYTSVIYFSCDKFIRNAHPEFAGLGADSCTYQFNFATPLACNDLKPCTAFTSTNELLDLSSLSSKPARTLLKDGKNYTIAVCAHAGAPCQENGGACYEQNSTTISLGNSNSQLRFNQTGSLYLLYEDGAECSTATGMRRWSTKIEFVCANNATKDNGASTAGGSDSLKIIEDSNCQLLIQYQTPLACREPIRCKATTYVDHTNDGLGSSGDELIDLTPLISATDNYEARVELPASMEHLVPKTTKFFLNVCRPLVPKYQLGCAGGSAACMAKVTAAGAPEEERSMGFPLVSLTQRNRTFAELAYLKGDPCPTDNTSELSTHILFNCNMRAGRGQPVLRSVEDCAYRFEWETNVFCPPHECTFSADTCDLVHDELGRRFNFKSAPFTKDGKIEIDYNATKMSVNICGAHRKAMTDYSQALVNIFFTHESPNCGREGTMNVQIRLICSDQTESSSTISSDQQCNLLYVQRTPSICEFLSLGATQQNFESNGSTSSSTSSSSTSTTTSTTTQASPAGKPTKAATSTTTTTVGPDPAATPIGPTASVGTILGAILSVTFCVTCLGLLAFSPARRQRIRRLFRRSNSAVRYSRVQSNEEANLLLEPNGEFTESDDDMLL", "values": [
      {"measurement": "glycan array binding signal (z-score)", "setting": "[1]", "result": 0.666},
      {"measurement": "glycan array binding signal (z-score)", "setting": "[2]", "result": -0.095},
      {"measurement": "glycan array binding signal (z-score)", "setting": "[3]", "result": 1.7},
      {"measurement": "glycan array binding signal (z-score)", "setting": "[4]", "result": -0.446},
      {"measurement": "glycan array binding signal (z-score)", "setting": "Neu5Ac(a2-6)GalNAc", "result": -0.369},
      {"measurement": "glycan array binding signal (z-score)", "setting": "[5]", "result": -0.224},
      {"measurement": "glycan array binding signal (z-score)", "setting": "[6]", "result": -1.1},
      {"measurement": "glycan array binding signal (z-score)", "setting": "[7]", "result": -0.509},
      {"measurement": "glycan array binding signal (z-score)", "setting": "Neu5Ac(a2-8)Neu5Ac", "result": -0.852},
      {"measurement": "glycan array binding signal (z-score)", "setting": "[8]", "result": -0.855},
      {"measurement": "glycan array binding signal (z-score)", "setting": "[9]", "result": -0.644},
      {"measurement": "glycan array binding signal (z-score)", "setting": "[10]", "result": -0.319},
      {"measurement": "glycan array binding signal (z-score)", "setting": "[11]", "result": -1.28},
      {"measurement": "glycan array binding signal (z-score)", "setting": "[12]", "result": -0.978},
      {"measurement": "glycan array binding signal (z-score)", "setting": "[13]", "result": -0.61},
      {"measurement": "glycan array binding signal (z-score)", "setting": "[14]", "result": 0.048},
      {"measurement": "glycan array binding signal (z-score)", "setting": "Neu5Ac(b2-6)GalNAc", "result": -0.401},
      {"measurement": "glycan array binding signal (z-score)", "setting": "[15]", "result": -0.062},
      {"measurement": "glycan array binding signal (z-score)", "setting": "[16]", "result": -0.362},
      {"measurement": "glycan array binding signal (z-score)", "setting": "[17]", "result": 1.31},
      {"measurement": "glycan array binding signal (z-score)", "setting": "[18]", "result": 0.176},
      {"measurement": "glycan array binding signal (z-score)", "setting": "[19]", "result": 0.556},
      {"measurement": "glycan array binding signal (z-score)", "setting": "Neu5Gc(a2-3)Gal(b1-4)Glc", "result": 0.631},
      {"measurement": "glycan array binding signal (z-score)", "setting": "[20]", "result": -0.227},
      {"measurement": "glycan array binding signal (z-score)", "setting": "[21]", "result": -0.62},
      {"measurement": "glycan array binding signal (z-score)", "setting": "[22]", "result": -1.33},
      {"measurement": "glycan array binding signal (z-score)", "setting": "Neu5Gc(a2-6)GalNAc", "result": -0.673},
      {"measurement": "glycan array binding signal (z-score)", "setting": "[23]", "result": -1.73}
    ]}
  ]
}
